Measured values taken from article PMC545490, “Mapping and mutation of the conserved DNA polymerase interaction motif (DPIM) located in the C-terminal domain of fission yeast DNA polymerase δ subunit Cdc27” (BMC Molecular Biology, 2004).
No constants are given. Whether binding was seen depends on the method and setting. Where a sequence is shown, tags or fusion partners need not be part of it.

Sequences of proteins named here, by UniProt entry; tags and fusion partners are left off. A change or cut given only in a name is not applied to a line headed by its entry.
UniProt P28040: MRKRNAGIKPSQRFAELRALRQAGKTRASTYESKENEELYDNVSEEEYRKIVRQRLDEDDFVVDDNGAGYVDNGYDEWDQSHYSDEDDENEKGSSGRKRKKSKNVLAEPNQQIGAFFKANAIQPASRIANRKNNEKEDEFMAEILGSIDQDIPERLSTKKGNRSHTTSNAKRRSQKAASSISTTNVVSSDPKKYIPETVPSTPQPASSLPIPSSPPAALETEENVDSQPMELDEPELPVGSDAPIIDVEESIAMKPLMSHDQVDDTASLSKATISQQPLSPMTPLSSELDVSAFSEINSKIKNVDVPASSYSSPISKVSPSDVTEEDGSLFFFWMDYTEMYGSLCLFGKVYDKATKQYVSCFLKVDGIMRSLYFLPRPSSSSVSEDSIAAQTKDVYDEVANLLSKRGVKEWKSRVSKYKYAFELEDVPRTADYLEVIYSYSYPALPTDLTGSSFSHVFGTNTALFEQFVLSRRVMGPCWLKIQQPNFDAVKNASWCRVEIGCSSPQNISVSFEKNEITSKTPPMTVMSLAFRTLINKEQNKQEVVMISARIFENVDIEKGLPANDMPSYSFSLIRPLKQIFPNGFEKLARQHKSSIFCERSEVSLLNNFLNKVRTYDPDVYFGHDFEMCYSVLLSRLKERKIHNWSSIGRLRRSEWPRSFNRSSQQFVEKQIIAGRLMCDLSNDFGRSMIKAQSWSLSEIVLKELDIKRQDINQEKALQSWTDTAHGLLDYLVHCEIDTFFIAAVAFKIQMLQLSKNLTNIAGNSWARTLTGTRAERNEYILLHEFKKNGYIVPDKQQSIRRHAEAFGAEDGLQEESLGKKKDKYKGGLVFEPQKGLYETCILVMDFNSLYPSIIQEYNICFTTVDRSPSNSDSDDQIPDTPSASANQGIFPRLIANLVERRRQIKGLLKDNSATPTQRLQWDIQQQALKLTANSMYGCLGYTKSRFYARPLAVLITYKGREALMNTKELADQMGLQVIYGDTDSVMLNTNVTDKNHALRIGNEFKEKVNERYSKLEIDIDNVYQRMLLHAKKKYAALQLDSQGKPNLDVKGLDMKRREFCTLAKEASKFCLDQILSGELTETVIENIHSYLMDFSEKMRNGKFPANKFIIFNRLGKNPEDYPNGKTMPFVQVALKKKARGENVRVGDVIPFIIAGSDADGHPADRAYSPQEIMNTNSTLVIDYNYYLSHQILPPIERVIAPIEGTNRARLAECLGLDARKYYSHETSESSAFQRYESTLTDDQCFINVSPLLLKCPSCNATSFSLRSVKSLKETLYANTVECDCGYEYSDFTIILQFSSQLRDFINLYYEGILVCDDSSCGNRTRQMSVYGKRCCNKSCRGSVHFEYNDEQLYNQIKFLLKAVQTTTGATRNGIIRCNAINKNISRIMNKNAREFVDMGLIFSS

Columns and labels:
[1] = biological target: LexA-Pol1(328–477) (S. pombe) (UniProt P28040); assay: two-hybrid; Gal4 AD prey (pACT2) and LexA bait (pBTM116) in S. cerevisiae lexA op-lacZ strain CTY10-5d; β-galactosidase activity in Miller units
[2] = biological target: LexA-Pol1(328–527) (S. pombe) (UniProt P28040); assay: as above

binding [1]: no binding | binding [2]: no binding
B1: Full-length Cdc27 fused to the activation domain (AD) of the yeast Gal4 protein (protein, UniProt P30261 1-372)
chain: MEEWRNFLDIKVINESSLVTVDNLSLQLDISSEKAQEYLNMFYQGNDFLYPIYLIHGQPIDDEINLEIDEESQPISNFPVLQYILCDKSSLQEKQSRLKSGYKTVIFALSSAPLSDFDELLPAVYEIREKDVLYKKEDADKYGFIFNENSVPRVLKKAPSTHSPQLSVPSKTSTIDKTDTRSTEKTKGKDIFSNARNQKGNSSRKNKKAPLENHKEKEPLLPKEEKLSEQAKRERDDLKNIMQLEDESVSTTSVHDSEDDNLDSNNFQLEIGTEAKSAAPDEPQEIIKSVSGGKRRGKRKVKKYATTKDEEGFLVTKEEEVWESFSEDENISTGTSNVVRNKPTTVNIATKKKNTAQSKPQQKSIMSFFGKK
